This is one part of the list.
Compound: CC1Cc2ccccc2N1C(=O)C1CCCN(C1)C(=O)CCl (mixture of isomers) [TRIM25 ligand 11 (diastereomer mixture)]
Assay: probe-labelled cysteine peptide fold change vs DMSO (competition) (log2 fold change); higher = less target engagement (more negative = stronger competition)
Conditions: 10 µM; THP-1; incubation time: 4 h
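Further: competitive chemoproteomic profiling in live THP-1 cells with an iodoacetamide desthiobiotin (IA-DTB) probe, comparing probe-labelled peptide intensities in compound-treated cells against DMSO-treated controls.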

Sequences of proteins named here, by UniProt entry; tags and fusion partners are left off. A change or cut given only in a name is not applied to a line headed by its entry.
UniProt Q00341: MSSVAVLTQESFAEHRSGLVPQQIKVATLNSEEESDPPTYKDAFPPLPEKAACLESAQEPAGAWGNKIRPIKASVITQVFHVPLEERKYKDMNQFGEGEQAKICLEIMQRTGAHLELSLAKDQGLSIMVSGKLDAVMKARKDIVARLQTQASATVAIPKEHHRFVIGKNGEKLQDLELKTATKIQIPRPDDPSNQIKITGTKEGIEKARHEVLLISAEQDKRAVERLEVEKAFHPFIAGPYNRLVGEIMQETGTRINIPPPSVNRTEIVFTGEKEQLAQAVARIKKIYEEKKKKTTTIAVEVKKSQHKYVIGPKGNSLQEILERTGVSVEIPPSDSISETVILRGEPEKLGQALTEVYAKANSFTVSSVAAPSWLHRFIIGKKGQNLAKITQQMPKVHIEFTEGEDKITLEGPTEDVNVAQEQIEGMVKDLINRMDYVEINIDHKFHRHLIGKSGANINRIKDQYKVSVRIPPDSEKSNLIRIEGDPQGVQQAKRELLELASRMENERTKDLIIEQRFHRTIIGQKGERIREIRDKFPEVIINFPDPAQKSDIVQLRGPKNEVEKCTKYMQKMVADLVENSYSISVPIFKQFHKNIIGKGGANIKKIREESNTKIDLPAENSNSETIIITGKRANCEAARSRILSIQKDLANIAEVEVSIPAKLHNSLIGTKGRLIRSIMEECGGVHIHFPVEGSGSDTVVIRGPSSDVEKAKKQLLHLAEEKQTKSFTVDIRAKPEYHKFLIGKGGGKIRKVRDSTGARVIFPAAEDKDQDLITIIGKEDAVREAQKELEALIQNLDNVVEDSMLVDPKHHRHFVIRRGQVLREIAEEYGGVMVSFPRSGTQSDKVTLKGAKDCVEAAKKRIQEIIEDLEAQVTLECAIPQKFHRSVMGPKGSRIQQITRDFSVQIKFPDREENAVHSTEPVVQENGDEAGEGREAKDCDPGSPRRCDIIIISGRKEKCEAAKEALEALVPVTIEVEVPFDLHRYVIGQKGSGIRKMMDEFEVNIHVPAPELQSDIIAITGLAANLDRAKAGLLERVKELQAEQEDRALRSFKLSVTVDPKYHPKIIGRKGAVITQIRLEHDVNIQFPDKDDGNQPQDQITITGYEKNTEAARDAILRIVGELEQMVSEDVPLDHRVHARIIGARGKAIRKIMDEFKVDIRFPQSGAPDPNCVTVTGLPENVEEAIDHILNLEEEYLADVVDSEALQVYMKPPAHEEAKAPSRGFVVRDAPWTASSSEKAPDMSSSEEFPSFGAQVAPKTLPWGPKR
UniProt Q7Z4V5: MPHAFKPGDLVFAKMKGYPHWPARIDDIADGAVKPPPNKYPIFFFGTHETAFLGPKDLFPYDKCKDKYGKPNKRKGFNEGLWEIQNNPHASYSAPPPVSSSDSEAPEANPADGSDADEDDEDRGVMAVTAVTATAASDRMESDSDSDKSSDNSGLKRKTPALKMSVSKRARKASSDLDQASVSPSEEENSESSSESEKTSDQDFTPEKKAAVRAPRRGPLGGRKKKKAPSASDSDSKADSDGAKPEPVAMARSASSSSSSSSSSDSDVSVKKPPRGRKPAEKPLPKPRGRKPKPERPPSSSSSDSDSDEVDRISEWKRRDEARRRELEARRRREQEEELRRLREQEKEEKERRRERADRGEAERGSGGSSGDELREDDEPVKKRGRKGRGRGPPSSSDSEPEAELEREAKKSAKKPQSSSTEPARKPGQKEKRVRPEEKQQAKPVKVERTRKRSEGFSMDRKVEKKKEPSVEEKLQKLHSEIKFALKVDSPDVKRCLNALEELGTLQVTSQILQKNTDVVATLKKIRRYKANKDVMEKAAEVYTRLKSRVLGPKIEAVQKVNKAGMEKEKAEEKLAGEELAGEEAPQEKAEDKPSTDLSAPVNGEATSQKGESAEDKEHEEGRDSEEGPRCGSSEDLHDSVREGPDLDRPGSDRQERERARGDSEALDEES
UniProt P08631: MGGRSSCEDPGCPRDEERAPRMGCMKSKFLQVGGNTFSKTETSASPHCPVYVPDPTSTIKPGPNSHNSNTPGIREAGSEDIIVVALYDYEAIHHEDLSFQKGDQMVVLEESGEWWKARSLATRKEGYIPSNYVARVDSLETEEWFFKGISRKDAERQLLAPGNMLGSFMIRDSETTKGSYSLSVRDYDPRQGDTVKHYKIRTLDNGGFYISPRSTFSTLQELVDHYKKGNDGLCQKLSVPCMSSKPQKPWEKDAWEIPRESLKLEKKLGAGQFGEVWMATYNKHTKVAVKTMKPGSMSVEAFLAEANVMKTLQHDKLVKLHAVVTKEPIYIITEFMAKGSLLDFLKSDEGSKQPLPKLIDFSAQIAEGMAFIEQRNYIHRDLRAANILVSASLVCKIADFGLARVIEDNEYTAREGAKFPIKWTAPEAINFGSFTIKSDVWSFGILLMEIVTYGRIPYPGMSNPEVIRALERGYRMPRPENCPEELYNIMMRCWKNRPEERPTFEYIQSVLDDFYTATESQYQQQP
UniProt Q8NG08: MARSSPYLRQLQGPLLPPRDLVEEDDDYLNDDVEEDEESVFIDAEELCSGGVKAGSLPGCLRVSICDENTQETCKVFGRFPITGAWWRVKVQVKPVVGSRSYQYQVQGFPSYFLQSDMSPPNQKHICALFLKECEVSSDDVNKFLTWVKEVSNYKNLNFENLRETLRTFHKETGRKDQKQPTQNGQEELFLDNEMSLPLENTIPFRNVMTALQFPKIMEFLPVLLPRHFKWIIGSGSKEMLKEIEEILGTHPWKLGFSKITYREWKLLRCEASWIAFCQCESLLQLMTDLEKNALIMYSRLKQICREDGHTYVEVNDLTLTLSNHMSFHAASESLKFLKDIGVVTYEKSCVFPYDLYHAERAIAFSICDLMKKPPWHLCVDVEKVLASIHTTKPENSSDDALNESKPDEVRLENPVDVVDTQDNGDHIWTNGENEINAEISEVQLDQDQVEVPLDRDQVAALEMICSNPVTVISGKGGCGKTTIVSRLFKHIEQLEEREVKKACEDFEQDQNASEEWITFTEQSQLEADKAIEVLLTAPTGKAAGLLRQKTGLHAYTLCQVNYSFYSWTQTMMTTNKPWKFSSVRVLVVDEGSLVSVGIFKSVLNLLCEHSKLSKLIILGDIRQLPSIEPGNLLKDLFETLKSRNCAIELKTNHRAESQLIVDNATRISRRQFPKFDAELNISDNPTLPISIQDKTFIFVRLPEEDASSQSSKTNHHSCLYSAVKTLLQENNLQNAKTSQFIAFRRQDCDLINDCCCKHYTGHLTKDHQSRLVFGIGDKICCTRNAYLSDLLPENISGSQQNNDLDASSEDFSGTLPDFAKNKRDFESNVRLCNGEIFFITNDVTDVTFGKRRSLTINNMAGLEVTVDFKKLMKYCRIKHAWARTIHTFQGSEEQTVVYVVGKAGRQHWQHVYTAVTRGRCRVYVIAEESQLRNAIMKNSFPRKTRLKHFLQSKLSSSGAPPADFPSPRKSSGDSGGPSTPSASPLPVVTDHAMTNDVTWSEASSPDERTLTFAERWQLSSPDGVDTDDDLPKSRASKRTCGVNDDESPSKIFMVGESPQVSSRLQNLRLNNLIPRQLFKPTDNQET
UniProt Q92769, whole entry, looked up: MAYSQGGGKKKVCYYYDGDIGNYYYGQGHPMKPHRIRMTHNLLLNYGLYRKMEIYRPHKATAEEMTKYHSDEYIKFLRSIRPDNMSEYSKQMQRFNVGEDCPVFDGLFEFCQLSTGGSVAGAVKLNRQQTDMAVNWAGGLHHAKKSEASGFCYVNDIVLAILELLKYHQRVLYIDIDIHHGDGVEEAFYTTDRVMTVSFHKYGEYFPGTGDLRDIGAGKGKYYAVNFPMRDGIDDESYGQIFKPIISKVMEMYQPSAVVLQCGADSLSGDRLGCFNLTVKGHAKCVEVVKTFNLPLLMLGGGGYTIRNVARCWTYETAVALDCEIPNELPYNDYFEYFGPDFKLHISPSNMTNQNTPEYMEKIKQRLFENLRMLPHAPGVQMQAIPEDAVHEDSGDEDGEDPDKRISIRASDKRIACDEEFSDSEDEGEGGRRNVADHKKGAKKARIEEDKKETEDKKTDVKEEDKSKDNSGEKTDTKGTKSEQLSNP
UniProt P13747, whole entry, looked up: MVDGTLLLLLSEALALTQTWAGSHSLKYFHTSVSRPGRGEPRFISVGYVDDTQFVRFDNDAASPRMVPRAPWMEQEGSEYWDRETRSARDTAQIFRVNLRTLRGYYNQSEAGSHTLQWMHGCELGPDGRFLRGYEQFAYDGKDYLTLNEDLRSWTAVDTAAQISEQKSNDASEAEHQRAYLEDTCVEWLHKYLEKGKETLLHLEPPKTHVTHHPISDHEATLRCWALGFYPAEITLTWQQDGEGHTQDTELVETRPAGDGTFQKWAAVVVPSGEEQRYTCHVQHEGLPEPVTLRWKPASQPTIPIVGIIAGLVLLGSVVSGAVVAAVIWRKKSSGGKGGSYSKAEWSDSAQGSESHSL
UniProt Q9BTY7: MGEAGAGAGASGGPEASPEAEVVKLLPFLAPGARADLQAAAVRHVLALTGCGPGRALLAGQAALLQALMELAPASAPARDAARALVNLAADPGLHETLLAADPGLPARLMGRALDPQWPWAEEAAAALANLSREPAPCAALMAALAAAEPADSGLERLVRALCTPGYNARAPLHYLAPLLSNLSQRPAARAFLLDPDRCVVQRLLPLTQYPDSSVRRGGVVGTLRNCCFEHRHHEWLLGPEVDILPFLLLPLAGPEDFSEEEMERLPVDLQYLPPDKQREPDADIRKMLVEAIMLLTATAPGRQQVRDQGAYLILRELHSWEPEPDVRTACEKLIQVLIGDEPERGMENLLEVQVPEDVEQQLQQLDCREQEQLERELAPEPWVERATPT
UniProt O15379: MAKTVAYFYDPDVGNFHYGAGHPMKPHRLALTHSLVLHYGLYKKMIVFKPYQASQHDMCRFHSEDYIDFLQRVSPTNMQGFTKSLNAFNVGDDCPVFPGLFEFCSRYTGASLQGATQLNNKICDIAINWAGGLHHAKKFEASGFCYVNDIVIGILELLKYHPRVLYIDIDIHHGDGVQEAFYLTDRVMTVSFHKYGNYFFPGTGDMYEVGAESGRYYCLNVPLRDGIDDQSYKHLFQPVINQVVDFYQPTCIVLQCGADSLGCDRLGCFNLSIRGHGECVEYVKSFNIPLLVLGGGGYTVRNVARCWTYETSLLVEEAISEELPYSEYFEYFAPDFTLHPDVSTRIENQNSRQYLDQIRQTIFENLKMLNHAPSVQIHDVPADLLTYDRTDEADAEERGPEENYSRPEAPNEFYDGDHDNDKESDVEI
UniProt Q9UKV0: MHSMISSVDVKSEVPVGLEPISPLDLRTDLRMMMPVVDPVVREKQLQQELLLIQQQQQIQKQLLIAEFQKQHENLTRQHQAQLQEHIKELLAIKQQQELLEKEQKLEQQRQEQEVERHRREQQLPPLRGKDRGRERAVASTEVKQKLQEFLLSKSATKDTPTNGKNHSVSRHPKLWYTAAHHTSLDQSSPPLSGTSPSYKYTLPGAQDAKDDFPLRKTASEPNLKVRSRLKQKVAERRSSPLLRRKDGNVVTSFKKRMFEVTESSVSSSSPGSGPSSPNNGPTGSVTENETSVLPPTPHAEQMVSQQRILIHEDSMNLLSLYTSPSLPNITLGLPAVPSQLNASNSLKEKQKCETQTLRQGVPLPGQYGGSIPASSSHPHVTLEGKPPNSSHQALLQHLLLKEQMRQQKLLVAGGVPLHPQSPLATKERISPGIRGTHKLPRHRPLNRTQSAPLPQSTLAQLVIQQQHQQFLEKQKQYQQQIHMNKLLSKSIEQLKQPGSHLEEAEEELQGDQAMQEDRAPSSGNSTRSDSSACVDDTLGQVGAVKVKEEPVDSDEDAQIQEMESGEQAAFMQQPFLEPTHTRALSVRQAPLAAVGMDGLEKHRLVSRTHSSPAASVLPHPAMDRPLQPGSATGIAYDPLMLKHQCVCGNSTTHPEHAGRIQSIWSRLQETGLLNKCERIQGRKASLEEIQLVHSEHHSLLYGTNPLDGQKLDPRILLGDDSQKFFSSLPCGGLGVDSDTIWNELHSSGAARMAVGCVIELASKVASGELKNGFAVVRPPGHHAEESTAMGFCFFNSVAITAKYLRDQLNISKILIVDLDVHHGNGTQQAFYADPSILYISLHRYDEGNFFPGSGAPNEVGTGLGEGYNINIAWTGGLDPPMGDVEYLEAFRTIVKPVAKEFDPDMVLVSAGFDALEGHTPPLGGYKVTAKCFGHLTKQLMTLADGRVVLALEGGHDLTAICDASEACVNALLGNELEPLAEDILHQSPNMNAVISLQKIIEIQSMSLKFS
UniProt P53701: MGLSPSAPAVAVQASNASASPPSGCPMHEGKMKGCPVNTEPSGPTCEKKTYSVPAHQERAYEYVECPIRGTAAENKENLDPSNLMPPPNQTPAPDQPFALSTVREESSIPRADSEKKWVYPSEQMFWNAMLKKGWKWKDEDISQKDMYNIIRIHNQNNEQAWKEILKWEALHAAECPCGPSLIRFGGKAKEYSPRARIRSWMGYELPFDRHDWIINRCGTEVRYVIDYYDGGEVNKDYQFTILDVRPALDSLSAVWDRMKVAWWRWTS

| Target | probe-labelled cysteine peptide fold change |
| --- | --- |
| HLTF_Q14527_780_LILSSGSDEECAICLDSLTVPVITHCAHVFCK (UniProt Q14527) | -0.0046 |
| HDLBP_Q00341_683_SIMEECGGVHIHFPVEGSGSDTVVIR (UniProt Q00341) | 0.00431 |
| HDGFL2_Q7Z4V5_496_CLNALEELGTLQVTSQILQK (UniProt Q7Z4V5) | 0.029 |
| HK3_P52790_269_VCVSVEWGSFSDDGALGPVLTTFDHTLDHESLNPGAQR (UniProt P52790) | 0.242 |
| HCK_P08631_482_MPRPENCPEELYNIMMR (UniProt P08631) | -0.226 |
| HIP1_O00291_613_LASTEESMCQLAK (UniProt O00291) | -0.157 |
| HECTD4_Q9Y4D8-5_275_LLLLEGGPGSPSCLLGGK (UniProt Q9Y4D8) | 0.101 |
| HECTD1_Q9ULT8_1944_NCSQLIAAYK (UniProt Q9ULT8) | 0.027 |
| HLA-C_P04222_345_GGSCSQAASSNSAQGSDESLIACKA (UniProt P04222) | -0.155 |
| HELB_Q8NG08_368_AIAFSICDLMK (UniProt Q8NG08) | 0.0413 |
| HLTF_Q14527_812_NDIHEDNLLECPPEELAR (UniProt Q14527) | 0.229 |
| HDAC2_Q92769_13_VCYYYDGDIGNYYYGQGHPMK (UniProt Q92769) | 0.0825 |
| HLA-E_P13747_185_AYLEDTCVEWLHK (UniProt P13747) | 0.0236 |
| HCK_P08631_395_AANILVSASLVCK (UniProt P08631) | 0.0799 |
| HDLBP_Q00341_104_ICLEIMQR (UniProt Q00341) | 0.0329 |
| HK3_P52790_190_CSGVEGQDVVQLLR (UniProt P52790) | 0.136 |
| HINT3_Q9NQE9_73_QDPGTELLHCENEDLICFK (UniProt Q9NQE9) | -0.0864 |
| HIBADH_P31937_75_HGYPLIIYDVFPDACK (UniProt P31937) | -0.0498 |
| HGH1_Q9BTY7_227_NCCFEHR (UniProt Q9BTY7) | -0.00541 |

| Target | probe-labelled cysteine peptide fold change |
| --- | --- |
| HDAC3_O15379_279_GHGECVEYVK (UniProt O15379) | 0.0364 |
| HK2_P52789_386_SASLCAATLAAVLQR (UniProt P52789) | -0.197 |
| HIF1AN_Q9NWT6_216+236_CILFPPDQFECLYPYPVHHPCDR (UniProt Q9NWT6) | 0.173 |
| HEATR5A_Q86XA9_1635_QIICAAQEHVK (UniProt Q86XA9) | -0.123 |
| HERC4_Q5GLZ8_175_YGQLGLGTDCKK (UniProt Q5GLZ8) | -0.0394 |
| HDAC3_O15379_59_MIVFKPYQASQHDMCR (UniProt O15379) | -0.135 |
| HLTF_Q14527_896_RVESIQCFQNTEAGSPTIMLLSLK (UniProt Q14527) | -3.58e-05 |
| HERC2_O95714_4204_VECGSQFSVALTK (UniProt O95714) | 0.0159 |
| HCFC1_P51610_1886+1895_TCLPGFPGAPCAIK (UniProt P51610) | 0.111 |
| HDAC9_Q9UKV0_534_SDSSACVDDTLGQVGAVK (UniProt Q9UKV0) | 0.000227 |
| HCFC1_P51610_227_KSKLVIYGGMSGCR (UniProt P51610) | 0.179 |
| HCCS_P53701_46_GCPVNTEPSGPTCEK (UniProt P53701) | -0.174 |
| HK1_P19367_133_NQNVHMESEVYDTPENIVHGSGSQLFDHVAECLGDFMEK (UniProt P19367) | 0.0399 |
| HERC1_Q15751_1941_CSSGIPLVGNLR (UniProt Q15751) | -0.0408 |
| HDAC5_Q9UQL6_982_CFGHLTR (UniProt Q9UQL6) | -0.000832 |
| HIRA_P54198_867_QDSLAQCADFR (UniProt P54198) | 0.0563 |
| HCFC1_P51610_1872_VAGINACGR (UniProt P51610) | 0.0399 |
| HK2_P52789_813_AILQHLGLESTCDDSIIVK (UniProt P52789) | 0.344 |

Same assay, conditions: 50 µM; THP-1; incubation time: 4 h

| Target | probe-labelled cysteine peptide fold change |
| --- | --- |
| HLTF_Q14527_780_LILSSGSDEECAICLDSLTVPVITHCAHVFCK (UniProt Q14527) | -0.0556 |
| HDLBP_Q00341_683_SIMEECGGVHIHFPVEGSGSDTVVIR (UniProt Q00341) | 0.0569 |
| HDGFL2_Q7Z4V5_496_CLNALEELGTLQVTSQILQK (UniProt Q7Z4V5) | -0.13 |
| HK3_P52790_269_VCVSVEWGSFSDDGALGPVLTTFDHTLDHESLNPGAQR (UniProt P52790) | -0.161 |
| HCK_P08631_482_MPRPENCPEELYNIMMR (UniProt P08631) | -0.0585 |
| HIP1_O00291_613_LASTEESMCQLAK (UniProt O00291) | -0.31 |
| HECTD4_Q9Y4D8-5_275_LLLLEGGPGSPSCLLGGK (UniProt Q9Y4D8) | 0.145 |
| HECTD1_Q9ULT8_1944_NCSQLIAAYK (UniProt Q9ULT8) | 0.0693 |
| HLA-C_P04222_345_GGSCSQAASSNSAQGSDESLIACKA (UniProt P04222) | -0.141 |
| HELB_Q8NG08_368_AIAFSICDLMK (UniProt Q8NG08) | -0.0148 |
| HLTF_Q14527_812_NDIHEDNLLECPPEELAR (UniProt Q14527) | 0.134 |
| HDAC2_Q92769_13_VCYYYDGDIGNYYYGQGHPMK (UniProt Q92769) | 0.164 |
| HLA-E_P13747_185_AYLEDTCVEWLHK (UniProt P13747) | 0.212 |
| HCK_P08631_395_AANILVSASLVCK (UniProt P08631) | 0.0391 |
| HDLBP_Q00341_104_ICLEIMQR (UniProt Q00341) | 0.146 |
| HK3_P52790_190_CSGVEGQDVVQLLR (UniProt P52790) | -0.102 |
| HINT3_Q9NQE9_73_QDPGTELLHCENEDLICFK (UniProt Q9NQE9) | -0.178 |
| HIBADH_P31937_75_HGYPLIIYDVFPDACK (UniProt P31937) | -0.35 |
| HGH1_Q9BTY7_227_NCCFEHR (UniProt Q9BTY7) | 0.166 |

| Target | probe-labelled cysteine peptide fold change |
| --- | --- |
| HDAC3_O15379_279_GHGECVEYVK (UniProt O15379) | 0.0441 |
| HK2_P52789_386_SASLCAATLAAVLQR (UniProt P52789) | 0.107 |
| HIF1AN_Q9NWT6_216+236_CILFPPDQFECLYPYPVHHPCDR (UniProt Q9NWT6) | 0.147 |
| HEATR5A_Q86XA9_1635_QIICAAQEHVK (UniProt Q86XA9) | -0.0121 |
| HERC4_Q5GLZ8_175_YGQLGLGTDCKK (UniProt Q5GLZ8) | -0.0946 |
| HDAC3_O15379_59_MIVFKPYQASQHDMCR (UniProt O15379) | -0.144 |
| HLTF_Q14527_896_RVESIQCFQNTEAGSPTIMLLSLK (UniProt Q14527) | 0.0148 |
| HERC2_O95714_4204_VECGSQFSVALTK (UniProt O95714) | 0.00567 |
| HCFC1_P51610_1886+1895_TCLPGFPGAPCAIK (UniProt P51610) | -0.101 |
| HDAC9_Q9UKV0_534_SDSSACVDDTLGQVGAVK (UniProt Q9UKV0) | -0.169 |
| HCFC1_P51610_227_KSKLVIYGGMSGCR (UniProt P51610) | 0.475 |
| HCCS_P53701_46_GCPVNTEPSGPTCEK (UniProt P53701) | -0.169 |
| HK1_P19367_133_NQNVHMESEVYDTPENIVHGSGSQLFDHVAECLGDFMEK (UniProt P19367) | -0.0719 |
| HERC1_Q15751_1941_CSSGIPLVGNLR (UniProt Q15751) | -0.0993 |
| HDAC5_Q9UQL6_982_CFGHLTR (UniProt Q9UQL6) | 0.141 |
| HIRA_P54198_867_QDSLAQCADFR (UniProt P54198) | -0.0265 |
| HCFC1_P51610_1872_VAGINACGR (UniProt P51610) | 0.053 |
| HK2_P52789_813_AILQHLGLESTCDDSIIVK (UniProt P52789) | 0.148 |
